Results reported in article PMC2672614.
Results are given in words; binding and its absence hold for the method and conditions named. Binding seen in cells or lysates may run through a third protein. These calls come from enrichment with a bait or labelling near it, and not all partners need be listed. For part of these data: Sequences can lack the tags named with a protein.

Amino acid sequences for entries named in this document (tags omitted). A change or cut given only in a name is not applied to a line headed by its entry.
UniProt P21513: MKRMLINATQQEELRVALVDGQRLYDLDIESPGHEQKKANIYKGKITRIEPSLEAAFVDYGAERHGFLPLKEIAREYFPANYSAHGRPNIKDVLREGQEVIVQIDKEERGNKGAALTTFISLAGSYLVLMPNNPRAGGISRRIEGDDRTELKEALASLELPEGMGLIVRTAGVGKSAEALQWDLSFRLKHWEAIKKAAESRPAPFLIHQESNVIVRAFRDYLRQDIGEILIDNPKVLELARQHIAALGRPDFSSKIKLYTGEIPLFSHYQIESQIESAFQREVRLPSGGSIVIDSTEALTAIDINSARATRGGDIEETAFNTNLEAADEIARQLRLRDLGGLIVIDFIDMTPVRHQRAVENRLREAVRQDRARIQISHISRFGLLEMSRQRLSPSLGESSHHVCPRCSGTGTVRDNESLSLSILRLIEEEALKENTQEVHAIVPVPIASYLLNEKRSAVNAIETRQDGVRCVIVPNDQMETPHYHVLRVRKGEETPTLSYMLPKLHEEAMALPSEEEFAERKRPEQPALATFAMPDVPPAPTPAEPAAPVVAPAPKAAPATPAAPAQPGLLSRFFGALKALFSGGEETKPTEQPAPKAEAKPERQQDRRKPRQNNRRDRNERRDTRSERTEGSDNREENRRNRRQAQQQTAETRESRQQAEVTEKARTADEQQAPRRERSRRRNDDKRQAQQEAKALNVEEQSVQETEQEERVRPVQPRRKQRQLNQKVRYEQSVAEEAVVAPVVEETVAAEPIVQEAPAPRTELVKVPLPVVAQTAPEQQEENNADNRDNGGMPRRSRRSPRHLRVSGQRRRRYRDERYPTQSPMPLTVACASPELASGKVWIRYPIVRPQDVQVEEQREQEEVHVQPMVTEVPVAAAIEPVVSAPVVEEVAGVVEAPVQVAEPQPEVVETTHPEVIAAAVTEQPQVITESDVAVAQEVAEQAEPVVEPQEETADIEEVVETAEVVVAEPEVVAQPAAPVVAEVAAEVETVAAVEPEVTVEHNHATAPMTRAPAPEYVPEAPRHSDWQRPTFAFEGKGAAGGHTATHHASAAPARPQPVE
UniProt P36979: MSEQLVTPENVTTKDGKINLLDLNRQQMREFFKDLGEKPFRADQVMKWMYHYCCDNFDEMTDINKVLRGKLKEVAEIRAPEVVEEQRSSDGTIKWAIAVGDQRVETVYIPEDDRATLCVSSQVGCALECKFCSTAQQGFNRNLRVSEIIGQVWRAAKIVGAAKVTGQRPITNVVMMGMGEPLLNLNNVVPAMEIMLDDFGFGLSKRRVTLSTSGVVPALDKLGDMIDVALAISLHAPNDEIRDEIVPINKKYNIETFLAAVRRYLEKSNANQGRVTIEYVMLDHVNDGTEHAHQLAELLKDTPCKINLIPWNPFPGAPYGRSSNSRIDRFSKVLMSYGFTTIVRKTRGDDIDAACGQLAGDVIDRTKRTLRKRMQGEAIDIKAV
UniProt P0CE47: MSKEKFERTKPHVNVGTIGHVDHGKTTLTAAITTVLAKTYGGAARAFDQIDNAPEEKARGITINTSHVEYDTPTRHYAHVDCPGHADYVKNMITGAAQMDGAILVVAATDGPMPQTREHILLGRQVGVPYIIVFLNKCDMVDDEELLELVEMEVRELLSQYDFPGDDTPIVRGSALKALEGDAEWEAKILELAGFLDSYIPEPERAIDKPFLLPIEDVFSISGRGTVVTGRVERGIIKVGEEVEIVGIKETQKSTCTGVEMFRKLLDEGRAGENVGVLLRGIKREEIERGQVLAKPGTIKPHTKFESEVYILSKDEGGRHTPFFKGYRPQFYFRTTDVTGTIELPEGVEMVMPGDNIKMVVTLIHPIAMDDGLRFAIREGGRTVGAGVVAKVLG

How the values were obtained:
Assay in all cases: affinity purification with mass spectrometry; chromosomal C-terminal SPA tag (three FLAG sequences and a calmodulin-binding peptide separated by a protease cleavage site) on the bait in E. coli DY330 (W3110 background); tandem-affinity purification of endogenous complexes under standard culture conditions; copurifying proteins detected by LCMS and MALDI; pairs filtered at confidence >=0.75
[1] = target: T1, YbcJ (E. coli K-12 W3110 (endogenous in DY330)) (UniProt P0AAS7)
T1 sequence: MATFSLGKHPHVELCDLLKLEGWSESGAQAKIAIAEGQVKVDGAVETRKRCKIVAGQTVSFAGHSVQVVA

[2] = target: T2, YncE (E. coli K-12 W3110 (endogenous in DY330)) (UniProt P76116)
T2 sequence: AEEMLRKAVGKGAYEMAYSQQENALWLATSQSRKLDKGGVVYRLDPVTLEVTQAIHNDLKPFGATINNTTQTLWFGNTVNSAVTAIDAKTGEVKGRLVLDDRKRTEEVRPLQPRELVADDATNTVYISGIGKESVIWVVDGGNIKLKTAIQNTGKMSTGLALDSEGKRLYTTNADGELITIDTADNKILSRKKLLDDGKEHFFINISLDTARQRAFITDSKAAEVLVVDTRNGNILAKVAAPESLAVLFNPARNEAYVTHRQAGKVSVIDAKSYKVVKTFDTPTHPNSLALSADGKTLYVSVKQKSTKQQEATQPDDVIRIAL

[3] = target: T3, YibL (E. coli K-12 W3110 (endogenous in DY330)) (UniProt P0ADK8)
T3 sequence: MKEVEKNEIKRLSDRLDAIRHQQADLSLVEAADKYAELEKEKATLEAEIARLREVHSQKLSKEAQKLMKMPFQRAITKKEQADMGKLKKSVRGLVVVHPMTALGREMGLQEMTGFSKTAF

[4] = target: T4, YdhQ (E. coli K-12 W3110 (endogenous in DY330)) (UniProt P77552)
T4 sequence: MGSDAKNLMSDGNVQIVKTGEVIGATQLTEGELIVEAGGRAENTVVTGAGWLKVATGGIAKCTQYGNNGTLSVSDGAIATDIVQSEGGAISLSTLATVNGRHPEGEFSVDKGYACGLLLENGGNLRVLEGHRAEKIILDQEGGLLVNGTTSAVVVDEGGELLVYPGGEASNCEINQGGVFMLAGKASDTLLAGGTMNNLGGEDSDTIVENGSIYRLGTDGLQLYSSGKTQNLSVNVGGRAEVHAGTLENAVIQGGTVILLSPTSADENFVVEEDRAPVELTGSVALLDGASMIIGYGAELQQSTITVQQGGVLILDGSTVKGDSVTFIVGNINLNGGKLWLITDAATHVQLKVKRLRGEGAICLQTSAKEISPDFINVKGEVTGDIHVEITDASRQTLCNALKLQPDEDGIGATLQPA

[5] = target: T5, YjcF (E. coli K-12 W3110 (endogenous in DY330)) (UniProt P32704)
T5 sequence: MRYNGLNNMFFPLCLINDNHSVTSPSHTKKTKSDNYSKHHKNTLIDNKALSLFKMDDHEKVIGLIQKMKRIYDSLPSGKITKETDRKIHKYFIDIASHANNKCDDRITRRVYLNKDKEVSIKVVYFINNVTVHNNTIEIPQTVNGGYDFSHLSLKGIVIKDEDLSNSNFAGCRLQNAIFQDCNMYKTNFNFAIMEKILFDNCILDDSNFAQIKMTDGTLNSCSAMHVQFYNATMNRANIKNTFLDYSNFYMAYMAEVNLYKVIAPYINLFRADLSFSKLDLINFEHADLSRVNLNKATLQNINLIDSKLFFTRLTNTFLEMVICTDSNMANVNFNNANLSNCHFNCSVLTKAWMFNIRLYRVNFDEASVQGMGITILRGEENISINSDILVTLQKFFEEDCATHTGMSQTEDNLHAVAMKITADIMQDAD

Row | binding [1] | binding [2] | binding [3] | Molecule | other results
1 | binds | binds | – | exoribonuclease E (Rne) (from UniProt P21513 1-1061) (enzyme) | –
2 | binds | binds | binds | pseudouridylate synthase RluB (enzyme, UniProt P37765 1-291) MSEKLQKVLARAGHGSRREIESIIEAGRVSVDGKIAKLGDRVEVTPGLKIRIDGHLISVRESAEQICRVLAYYKPEGELCTRNDPEGRPTVFDRLPKLRGARWIAVGRLDVNTCGLLLFTTDGELANRLMHPSREVEREYAVRVFGQVDDAKLRDLSRGVQLEDGPAAFKTIKFSGGEGINQWYNVTLTEGRNREVRRLWEAVGVQVSRLIRVRYGDIPLPKGLPRGGWTELDLAQTNYLRELVELPPETSSKVAVEKDRRRMKANQIRRAVKRHSQVSGGRRSGGRNNNG | –
3 | binds | binds | – | exoribonuclease R (Rnr) (enzyme, UniProt P21499 1-813) MSQDPFQEREAEKYANPIPSREFILEHLTKREKPASRDELAVELHIEGEEQLEGLRRRLRAMERDGQLVFTRRQCYALPERLDLVKGTVIGHRDGYGFLRVEGRKDDLYLSSEQMKTCIHGDQVLAQPLGADRKGRREARIVRVLVPKTSQIVGRYFTEAGVGFVVPDDSRLSFDILIPPDQIMGARMGFVVVVELTQRPTRRTKAVGKIVEVLGDNMGTGMAVDIALRTHEIPYIWPQAVEQQVAGLKEEVPEEAKAGRVDLRDLPLVTIDGEDARDFDDAVYCEKKRGGGWRLWVAIADVSYYVRPSTPLDREARNRGTSVYFPSQVIPMLPEVLSNGLCSLNPQVDRLCMVCEMTVSSKGRLTGYKFYEAVMSSHARLTYTKVWHILQGDQDLREQYAPLVKHLEELHNLYKVLDKAREERGGISFESEEAKFIFNAERRIERIEQTQRNDAHKLIEECMILANISAARFVEKAKEPALFRIHDKPSTEAITSFRSVLAELGLELPGGNKPEPRDYAELLESVADRPDAEMLQTMLLRSMKQAIYDPENRGHFGLALQSYAHFTSPIRRYPDLTLHRAIKYLLAKEQGHQGNTTETGGYHYSMEEMLQLGQHCSMAERRADEATRDVADWLKCDFMLDQVGNVFKGVISSVTGFGFFVRLDDLFIDGLVHVSSLDNDYYRFDQVGQRLMGESSGQTYRLGDRVEVRVEAVNMDERKIDFSLISSERAPRNVGKTAREKAKKGDAGKKGGKRRQVGKKVNFEPDSAFRGEKKTKPKAAKKDARKAKKPSAKTQKIAAATKAKRAAKKKVAE | –
4 | – | – | binds | YbcJ (protein, UniProt P0AAS7 1-70) MATFSLGKHPHVELCDLLKLEGWSESGAQAKIAIAEGQVKVDGAVETRKRCKIVAGQTVSFAGHSVQVVA | –
5 | – | – | binds | RNA pseudouridine synthetase RluC (enzyme, UniProt P0AA39 1-319) MKTETPSVKIVAITADEAGQRIDNFLRTQLKGVPKSMIYRILRKGEVRVNKKRIKPEYKLEAGDEVRIPPVRVAEREEEAVSPHLQKVAALADVILYEDDHILVLNKPSGTAVHGGSGLSFGVIEGLRALRPEARFLELVHRLDRDTSGVLLVAKKRSALRSLHEQLREKGMQKDYLALVRGQWQSHVKSVQAPLLKNILQSGERIVRVSQEGKPSETRFKVEERYAFATLVRCSPVTGRTHQIRVHTQYAGHPIAFDDRYGDREFDRQLTEAGTGLNRLFLHAAALKFTHPGTGEVMRIEAPMDEGLKRCLQKLRNAR | –

Continued, molecule first:

Row | Molecule | binding [1] | binding [2] | binding [3] | other results
6 | YfgB (from UniProt P36979 1-384) | – | – | binds | –
7 | translation elongation factor Tu (from UniProt P0CE47) | – | – | – | binding [4]: binds
8 | RNA helicase DeaD (enzyme, UniProt P0A9P6 1-629) MAEFETTFADLGLKAPILEALNDLGYEKPSPIQAECIPHLLNGRDVLGMAQTGSGKTAAFSLPLLQNLDPELKAPQILVLAPTRELAVQVAEAMTDFSKHMRGVNVVALYGGQRYDVQLRALRQGPQIVVGTPGRLLDHLKRGTLDLSKLSGLVLDEADEMLRMGFIEDVETIMAQIPEGHQTALFSATMPEAIRRITRRFMKEPQEVRIQSSVTTRPDISQSYWTVWGMRKNEALVRFLEAEDFDAAIIFVRTKNATLEVAEALERNGYNSAALNGDMNQALREQTLERLKDGRLDILIATDVAARGLDVERISLVVNYDIPMDSESYVHRIGRTGRAGRAGRALLFVENRERRLLRNIERTMKLTIPEVELPNAELLGKRRLEKFAAKVQQQLESSDLDQYRALLSKIQPTAEGEELDLETLAAALLKMAQGERTLIVPPDAPMRPKREFRDRDDRGPRDRNDRGPRGDREDRPRRERRDVGDMQLYRIEVGRDDGVEVRHIVGAIANEGDISSRYIGNIKLFASHSTIELPKGMPGEVLQHFTRTRILNKPMNMQLLGDAQPHTGGERRGGGRGFGGERREGGRNFSGERREGGRGDGRRFSGERREGRAPRRDDSTGRRRFGGDA | binds | binds | binds | –
9 | RppH (formerly NudH) (enzyme, UniProt P0A776 1-176) MIDDDGYRPNVGIVICNRQGQVMWARRFGQHSWQFPQGGINPGESAEQAMYRELFEEVGLSRKDVRILASTRNWLRYKLPKRLVRWDTKPVCIGQKQKWFLLQLVSGDAEINMQTSSTPEFDGWRWVSYWYPVRQVVSFKRDVYRRVMKEFASVVMSLQENTPKPQNASAYRRKRG | – | – | binds | –
10 | ribosomal release factor 2 (protein, UniProt P07012 1-365) MFEINPVNNRIQDLTERSDVLRGYLDYDAKKERLEEVNAELEQPDVWNEPERAQALGKERSSLEAVVDTLDQMKQGLEDVSGLLELAVEADDEETFNEAVAELDALEEKLAQLEFRRMFSGEYDSADCYLDIQAGSGGTEAQDWASMLERMYLRWAESRGFKTEIIEESEGEVAGIKSVTIKISGDYAYGWLRTETGVHRLVRKSPFDSGGRRHTSFSSAFVYPEVDDDIDIEINPADLRIDVYRTSGAGGQHVNRTESAVRITHIPTGIVTQCQNDRSQHKNKDQAMKQMKAKLYELEMQKKNAEKQAMEDNKSDIGWGSQIRSYVLDDSRIKDLRTGVETRNTQAVLDGSLDQFIEASLKAGL | – | – | – | binding [5]: binds
11 | YbeB (protein, UniProt P0AAT6 1-105) MQGKALQDFVIDKIDDLKGQDIIALDVQGKSSITDCMIICTGTSSRHVMSIADHVVQESRAAGLLPLGVEGENSADWIVVDLGDVIVHVMQEESRRLYELEKLWS | – | – | – | binding [5]: binds
12 | RNA helicase SrmB (enzyme, UniProt P21507 1-444) MTVTTFSELELDESLLEALQDKGFTRPTAIQAAAIPPALDGRDVLGSAPTGTGKTAAYLLPALQHLLDFPRKKSGPPRILILTPTRELAMQVSDHARELAKHTHLDIATITGGVAYMNHAEVFSENQDIVVATTGRLLQYIKEENFDCRAVETLILDEADRMLDMGFAQDIEHIAGETRWRKQTLLFSATLEGDAIQDFAERLLEDPVEVSANPSTRERKKIHQWYYRADDLEHKTALLVHLLKQPEATRSIVFVRKRERVHELANWLREAGINNCYLEGEMVQGKRNEAIKRLTEGRVNVLVATDVAARGIDIPDVSHVFNFDMPRSGDTYLHRIGRTARAGRKGTAISLVEAHDHLLLGKVGRYIEEPIKARVIDELRPKTRAPSEKQTGKPSKKVLAKRAEKKKAKEKEKPRVKKRHRDTKNIGKRRKPSGTGVPPQTTEE | – | binds | – | –
